The nature of the data set: 13C hyperpolarization before and after precipitation and redissolution. It is filed as physicochemical. The conditions noted are these: 1-13C.

As to `O=C([O-])/C=C/[13C](=O)[O-].[Na+].[Na+]` [sodium fumarate, sodium fumarate-1-^13C], the hyperpolarization before precipitation (after further finetuning of the process parameters) is reported as 45%. Moreover, the “hyperpolarization after precipitation and redissolution” value (redissolved in D2O containing sodium bicarbonate (300 mM), after further finetuning) was 25%.

(Values after patent publication US20230295058A1, “SYSTEMS AND METHODS FOR GENERATION OF HYPERPOLARIZED COMPOUNDS USING PARAHYDROGEN” (NVISION IMAGING TECHNOLOGIES GMBH, priority 2020, published 2023).)
